PubChem BioAssay AID1224830 | NIAID – 2016

Purpose: 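Genes whose knock-down alters the TNF-alpha reporter response to LPS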 (primary screen)
System: human THP-1 monocytic leukaemia cells, TNF dual-luciferase reporter clone, PMA-differentiated to macrophage-like cells
Reagents: siRNA pool against human genes, 50 nM
Duration: LPS for 4 h, given about 3 days after siRNA transfection
Conditions: bacterial LPS (TLR4 ligand), 10 ng/ml
Read-out: 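Ratio of firefly to renilla light, scaled to the plate median and expressed as a robust z-score per replicate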
Direction: TNF reporter robust z-score: higher = stronger TNF reporter response to LPS
Rule for the call: 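a well is active when its z-score exceeds 2.8 or falls below -1.5; control wells carry no call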
Here is an unselected part of about 18,000 reagents tested. About 2,900 of them (16%) were called active. 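Calls are made per well; low scores hint the gene aids the LPS response, high scores that it dampens it.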 A number with no mark means an inactive call. Repeated entries: four replicate wells of each siRNA pool. No sequences are given here.

target gene | TNF reporter robust z-score
TJP1 (GeneID 7082) | -0.49
TJP1 (GeneID 7082) | -0.11
TJP1 (GeneID 7082) | -0.68
TJP1 (GeneID 7082) | -0.86
RPS6 (GeneID 6194) | 1.43
RPS6 (GeneID 6194) | 1.92
RPS6 (GeneID 6194) | 1.11
RPS6 (GeneID 6194) | 1.85
ACOT2 (GeneID 10965) | -0.75
ACOT2 (GeneID 10965) | -0.42
ACOT2 (GeneID 10965) | -0.61
ACOT2 (GeneID 10965) | -0.81
CPSF2 (GeneID 53981) | 0.89
CPSF2 (GeneID 53981) | 0
CPSF2 (GeneID 53981) | -1.54 (active)
CPSF2 (GeneID 53981) | 1.7
CCDC32 (GeneID 90416) | 0.67
CCDC32 (GeneID 90416) | 0.68
CCDC32 (GeneID 90416) | -0.84
CCDC32 (GeneID 90416) | -0.71
ALDH18A1 (GeneID 5832) | -1.29
ALDH18A1 (GeneID 5832) | -0.34
ALDH18A1 (GeneID 5832) | 0.01
ALDH18A1 (GeneID 5832) | -0.04
CTNS (GeneID 1497) | 5.96 (active)
CTNS (GeneID 1497) | 0.59
CTNS (GeneID 1497) | -0.1
CTNS (GeneID 1497) | 0.38
TAFA4 (GeneID 151647) | 0.61
TAFA4 (GeneID 151647) | 0.4
TAFA4 (GeneID 151647) | -0.22
TAFA4 (GeneID 151647) | -0.11
CEP192 (GeneID 55125) | -0.2
CEP192 (GeneID 55125) | -0.17
CEP192 (GeneID 55125) | -0.18
CEP192 (GeneID 55125) | 0.35
TRIM52 (GeneID 84851) | 0.12
TRIM52 (GeneID 84851) | 0.84
TRIM52 (GeneID 84851) | -0.02
TRIM52 (GeneID 84851) | -0.42
IQGAP2 (GeneID 10788) | 0.09
IQGAP2 (GeneID 10788) | 0.76
IQGAP2 (GeneID 10788) | 0.51
IQGAP2 (GeneID 10788) | 0.44
CYP11B1 (GeneID 1584) | 0.7
CYP11B1 (GeneID 1584) | 0.29
CYP11B1 (GeneID 1584) | 1.4
CYP11B1 (GeneID 1584) | 1.12
PAK3 (GeneID 5063) | 0.47
PAK3 (GeneID 5063) | 0.12
PAK3 (GeneID 5063) | 1.38
PAK3 (GeneID 5063) | 1.26

The list goes on, starting with the last 3 of the part before.
target gene | TNF reporter robust z-score
PAK3 (GeneID 5063) | 0.12
PAK3 (GeneID 5063) | 1.38
PAK3 (GeneID 5063) | 1.26
GYG2 (GeneID 8908) | -0.16
GYG2 (GeneID 8908) | -0.89
GYG2 (GeneID 8908) | -0.27
GYG2 (GeneID 8908) | 1.16
MAP3K1 (GeneID 4214) | -0.17
MAP3K1 (GeneID 4214) | 0.29
MAP3K1 (GeneID 4214) | -0.2
MAP3K1 (GeneID 4214) | 0.09
MAP3K1 (GeneID 4214) | 0.55
MAP3K1 (GeneID 4214) | 0.4
MAP3K1 (GeneID 4214) | 0.57
MAP3K1 (GeneID 4214) | 0.54
PGAP1 (GeneID 80055) | 0.78
PGAP1 (GeneID 80055) | -0.48
PGAP1 (GeneID 80055) | -0.49
PGAP1 (GeneID 80055) | 0
CENPK (GeneID 64105) | 0.22
CENPK (GeneID 64105) | 0.74
CENPK (GeneID 64105) | 0.13
CENPK (GeneID 64105) | 0.6
S100A3 (GeneID 6274) | -1.28
S100A3 (GeneID 6274) | -0.63
S100A3 (GeneID 6274) | -0.7
S100A3 (GeneID 6274) | -0.62
WAPL (GeneID 23063) | 0.61
WAPL (GeneID 23063) | 3.25 (active)
WAPL (GeneID 23063) | 0.84
WAPL (GeneID 23063) | 0.18
DRG1 (GeneID 4733) | 1.76
DRG1 (GeneID 4733) | 1.16
DRG1 (GeneID 4733) | 1.27
DRG1 (GeneID 4733) | 2.54
RBMXL2 (GeneID 27288) | -0.12
RBMXL2 (GeneID 27288) | 1.22
RBMXL2 (GeneID 27288) | 0.44
RBMXL2 (GeneID 27288) | -0.53
MLST8 (GeneID 64223) | 0.14
MLST8 (GeneID 64223) | 0.58
MLST8 (GeneID 64223) | 0.27
MLST8 (GeneID 64223) | 1.31
ADGRE4P (GeneID 326342) | -0.78
ADGRE4P (GeneID 326342) | -0.37
ADGRE4P (GeneID 326342) | -0.93
ADGRE4P (GeneID 326342) | -0.1
NRSN2 (GeneID 80023) | 2.88 (active)
NRSN2 (GeneID 80023) | 2.09
NRSN2 (GeneID 80023) | 3.48 (active)
NRSN2 (GeneID 80023) | -0.11
SOX18 (GeneID 54345) | 0.09
SOX18 (GeneID 54345) | -0.17
SOX18 (GeneID 54345) | -0.97
SOX18 (GeneID 54345) | -0.69
COL27A1 (GeneID 85301) | 3.25 (active)
COL27A1 (GeneID 85301) | 3.75 (active)
COL27A1 (GeneID 85301) | 1.32
COL27A1 (GeneID 85301) | 2.12
PSME2 (GeneID 5721) | -0.64
PSME2 (GeneID 5721) | 1.25
PSME2 (GeneID 5721) | 0.88
PSME2 (GeneID 5721) | 0.03
